Variants at the background level are over-represented here.
B1: tRNA (parent)
chain: GUUCCGUUGGCGUAAUGGUAACGCGUCUCCCUCCUAAGGAGAAGACUGCGGGUUCGAGUCCCGUACGGAACG

Variants of: B1
Assay: yeast fitness relative to wild type (ratio to wild type); higher = fitter; tRNA-Arg(CCU), competitive growth, 37 C, YPD
In short: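 Changes in genotype frequencies gave Darwinian fitness relative to wild type. Frequencies were read by 100-nucleotide paired-end sequencing of gene amplicons before and after pooled Saccharomyces cerevisiae strains, carrying tRNA-Arg(CCU) gene variants at the native locus, were competed in YPD at 37°C for 24 hours in six replicates. A genotype was kept only with ≥ 100 starting reads, and estimates < 0.5 were set to 0.5.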

GUUCCGUUGGCGUAAUGGUAACGCGUCUGCAUCCUAAGGAGAAGACUGCGGGUUUGAGUCCCGUACGGAUCG [C29G C31A C55U A70U] and GUUCCGUUGGCGUAAUGGUAACGCGUCUGCGUCAUACGGAGAAGACUGCGGGUUCGAGUCCCGUAAGGAACG [C29G C31G C34A A37C C66A] cannot be ordered by yeast fitness: no more than 0.5 for the first, no more than 0.5 for the second.

GUUCCGUUGGCGUAAUGGUAACGCGUCUGCGUCCUAAGGAGAAGACUGCGGGUCCGAGUCCCGAACGGAACG [C29G C31G U54C U64A] and GUUCCGUUGGCGUAAUGGUAACGCGUCUGCCUUCUAAGGAGAAGACAGCGAGUUCGAGUCUCGUACGGAACG [C29G C33U U47A G51A C61U] cannot be ordered by yeast fitness: no more than 0.5 for the first, no more than 0.5 for the second.

GUUCCGUUGGCGUAAUGGUAACGCGUCUGCCUCCUAAGGAGAAGACUGAGGGUUCGAGUCCCGAACGGAACG [C29G C49A U64A] and GUUCCGUUGGCGUAAUGGUAACGCGUCUGCCUCCUAAGGAGAAGACUGCGGGUUCGAGUUUCGUAGGGAACG [C29G C60U C61U C66G] cannot be ordered by yeast fitness: no more than 0.5 for the first, no more than 0.5 for the second.

First: GUUCCGUUGGCGUAAUGGUAACGCGUCUGCCUCCUAAAGAGAAAAUUGCGGGUUCGAGUCCGGUACGGAACG [C29G G38A G44A C46U C62G]
Second: GUUCCGUUGGCGUAAUGGUAACGCGUCUGCCUCCUAACGAGAAAACUGCGGGUUCGAGUCCCGUACGGAACG [C29G G38C G44A]
The yeast fitness of the first is lower: no more than 0.5 for the first, 0.668 for the second.

GUUCCGUUGGCGUAAUGGUAACGCGUCUGCCUCCUAAGGAGAAGACUACGGGUUCGAGCCCCGUACGGUACG [C29G G48A U59C A69U] and GUUCCGUUGGCGUAAUGGUAACGCGUCUGCCUCCUAAGGAGAAGACUGCAGGUUGGAGUGCCGUACGGAACG [C29G G50A C55G C60G] cannot be ordered by yeast fitness: no more than 0.5 for the first, no more than 0.5 for the second.

GUUCCGUUGGCGUAAUGGUAACGCGUCUGCCUCCUAAGGAGAAGACUGCGGGUUCUAGUCCCGUACGGAACG [C29G G56U] and GUUCCGUUGGCGUAAUGGUAACGCGUCUGCCUCCUAAGGAGAAGACUGCGGGUUCGAGUCCCGUACGCAUCG [C29G G68C A70U] cannot be ordered by yeast fitness: no more than 0.5 for the first, no more than 0.5 for the second.

GUUCCGUUGGCGUAAUGGUAACGCGUCUGCCCCCUAAGGAGAAGACUGCGGGUUCGAGUCCGGUACGGAACG [C29G U32C C62G] and GUUCCGUUGGCGUAAUGGUAACGCGUCUGCCUCCCAAGGAGAAGACUGGGGGUUAGAGUCCCGUACGGAACG [C29G U35C C49G C55A] cannot be ordered by yeast fitness: no more than 0.5 for the first, no more than 0.5 for the second.

GUUCCGUUGGCGUAAUGGUAACGCGUCUGCCUCCCAAGGAGAAGACUGCGGGUUGGGGUCCCGUACGGAACG [C29G U35C C55G A57G] and GUUCCGUUGGCGUAAUGGUAACGCGUCUGCCUCCUAAGGAGAAGACGGCGGGUUCGAGUCCCAUACGGAACG [C29G U47G G63A] cannot be ordered by yeast fitness: no more than 0.5 for the first, no more than 0.5 for the second.

GUUCCGUUGGCGUAAUGGUAACGCGUCUUCCUCCUUAAGAGAAGACUGCGGGUUCGAGUACCGUACGGAGCG [C29U A36U G38A C60A A70G] and GUUCCGUUGGCGUAAUGGUAACGCGUCUUCCUCCUACGGGGAAGACUGCGGGUUCGAGUCCCGUACGGAACG [C29U A37C A40G] cannot be ordered by yeast fitness: no more than 0.5 for the first, no more than 0.5 for the second.

GUUCCGUUGGCGUAAUGGUAACGCGUCUUCCUCCUAAGGAGGAGACUGCGGGUUCGCGUCCCGCACGGAACG [C29U A42G A57C U64C] and GUUCCGUUGGCGUAAUGGUAACGCGUCUUCCUCCUAAGGAGUAGACUGUUGGUUCGAGUCCCGUACGGAACG [C29U A42U C49U G50U] cannot be ordered by yeast fitness: no more than 0.5 for the first, no more than 0.5 for the second.

GUUCCGUUGGCGUAAUGGUAACGCGUCUUCCUCCUAAGGAGAGGACUGAGGGUUCGAGUCCCGUAUGGAACG [C29U A43G C49A C66U] and GUUCCGUUGGCGUAAUGGUAACGCGUCUUCCUCCUAAGGAGAAGCCUGCGGGUUCGGGUCCCGUUCGGAACG [C29U A45C A57G A65U] cannot be ordered by yeast fitness: no more than 0.5 for the first, no more than 0.5 for the second.

GUUCCGUUGGCGUAAUGGUAACGCGUCUUCCUCCUAAGGAGAAGACUGCGGGUUCGAGUCCCGUCCGGCACG [C29U A65C A69C] and GUUCCGUUGGCGUAAUGGUAACGCGUCUUCUUCCUAAGGAGAAGACUGCGGGUUCGAGGCCCGUACGGAACG [C29U C31U U59G] cannot be ordered by yeast fitness: no more than 0.5 for the first, no more than 0.5 for the second.

Compared with GUUCCGUUGGCGUAAUGGUAACGCGUCUUCCUGCUAAGGAGAAGACUGCGGGUUCGAGUCCCGUACGGAACG [C29U C33G], GUUCCGUUGGCGUAAUGGUAACGCGUCUUCCUCCUAAGGAGAAGACUGAAGGUUCGAGUCCCCUACGGAACG [C29U C49A G50A G63C] is lower in yeast fitness: 0.689 for the first, no more than 0.5 for the second.

GUUCCGUUGGCGUAAUGGUAACGCGUCUUCCUCCUAAGGAGAAGACUGCGGGUUUGAGUCACGUACGGAACG [C29U C55U C61A] and GUUCCGUUGGCGUAAUGGUAACGCGUCUUCCUCCUAAGGAGAAGACUGCGGGUUCGAGUACUGUACGGAACG [C29U C60A C62U] cannot be ordered by yeast fitness: no more than 0.5 for the first, no more than 0.5 for the second.

Going from GUUCCGUUGGCGUAAUGGUAACGCGUCUUCCUCCUAAGGAGAACACUGUGGGUUCGUGUCCCAUACGGAACG [C29U G44C C49U A57U G63A] to GUUCCGUUGGCGUAAUGGUAACGCGUCUUCCUCCUAAGGAGAAGACCGCGGGUUCGAGUCCCGUACGGAACG [C29U U47C], the yeast fitness rises from no more than 0.5 to 0.923.

GUUCCGUUGGCGUAAUGGUAACGCGUCUCACUCCUAAAGAGAAGACUGCGGGUUAGAGUCCCGUCCGGUACG [C30A G38A C55A A65C A69U] and GUUCCGUUGGCGUAAUGGUAACGCGUCUCGCUCCUAAGGAGUAGGCUGCGGGUUCGAGUCCCGUACGGACCG [C30G A42U A45G A70C] cannot be ordered by yeast fitness: no more than 0.5 for the first, no more than 0.5 for the second.

GUUCCGUUGGCGUAAUGGUAACGCGUCUCGCUCCUAAGGAGAAGACUGCGGGUUCGUGUGCCGUACGGAACG [C30G A57U C60G] and GUUCCGUUGGCGUAAUGGUAACGCGUCUCGAUCCUAAGGAGUAGACUGCGGGUUCGAGUCCCGUACGGAACG [C30G C31A A42U] cannot be ordered by yeast fitness: no more than 0.5 for the first, no more than 0.5 for the second.

GUUCCGUUGGCGUAAUGGUAACGCGUCUCGCUGCUAAGGAGAAGACUGCGGGUUCGAGUGCCGUACGGAACG [C30G C33G C60G] and GUUCCGUUGGCGUAAUGGUAACGCGUCUCGCUCCUAAGGAGAAGAGUGCGGGUUCGAGUUCCGUACGGGACG [C30G C46G C60U A69G] cannot be ordered by yeast fitness: no more than 0.5 for the first, no more than 0.5 for the second.

Going from GUUCCGUUGGCGUAAUGGUAACGCGUCUCGCUCCUAAGGAGAAGACUGCGGGUUCGAGUACCGUAUGGAACG [C30G C60A C66U] to GUUCCGUUGGCGUAAUGGUAACGCGUCUCGCUCCUAAGGAGAAGACUGCGGGUUCGAGUCUCGUACGCAACG [C30G C61U G68C], the yeast fitness falls from 0.551 to no more than 0.5.

Reference: the RNAGym collection of RNA variant scans (doi:10.1126/science.aae0568)
